Library screen at single concentrations

By UniProt entry, the sequences of proteins in these tests, tags left out. Residues count along the entry.
UniProt I6X8D2, whole entry: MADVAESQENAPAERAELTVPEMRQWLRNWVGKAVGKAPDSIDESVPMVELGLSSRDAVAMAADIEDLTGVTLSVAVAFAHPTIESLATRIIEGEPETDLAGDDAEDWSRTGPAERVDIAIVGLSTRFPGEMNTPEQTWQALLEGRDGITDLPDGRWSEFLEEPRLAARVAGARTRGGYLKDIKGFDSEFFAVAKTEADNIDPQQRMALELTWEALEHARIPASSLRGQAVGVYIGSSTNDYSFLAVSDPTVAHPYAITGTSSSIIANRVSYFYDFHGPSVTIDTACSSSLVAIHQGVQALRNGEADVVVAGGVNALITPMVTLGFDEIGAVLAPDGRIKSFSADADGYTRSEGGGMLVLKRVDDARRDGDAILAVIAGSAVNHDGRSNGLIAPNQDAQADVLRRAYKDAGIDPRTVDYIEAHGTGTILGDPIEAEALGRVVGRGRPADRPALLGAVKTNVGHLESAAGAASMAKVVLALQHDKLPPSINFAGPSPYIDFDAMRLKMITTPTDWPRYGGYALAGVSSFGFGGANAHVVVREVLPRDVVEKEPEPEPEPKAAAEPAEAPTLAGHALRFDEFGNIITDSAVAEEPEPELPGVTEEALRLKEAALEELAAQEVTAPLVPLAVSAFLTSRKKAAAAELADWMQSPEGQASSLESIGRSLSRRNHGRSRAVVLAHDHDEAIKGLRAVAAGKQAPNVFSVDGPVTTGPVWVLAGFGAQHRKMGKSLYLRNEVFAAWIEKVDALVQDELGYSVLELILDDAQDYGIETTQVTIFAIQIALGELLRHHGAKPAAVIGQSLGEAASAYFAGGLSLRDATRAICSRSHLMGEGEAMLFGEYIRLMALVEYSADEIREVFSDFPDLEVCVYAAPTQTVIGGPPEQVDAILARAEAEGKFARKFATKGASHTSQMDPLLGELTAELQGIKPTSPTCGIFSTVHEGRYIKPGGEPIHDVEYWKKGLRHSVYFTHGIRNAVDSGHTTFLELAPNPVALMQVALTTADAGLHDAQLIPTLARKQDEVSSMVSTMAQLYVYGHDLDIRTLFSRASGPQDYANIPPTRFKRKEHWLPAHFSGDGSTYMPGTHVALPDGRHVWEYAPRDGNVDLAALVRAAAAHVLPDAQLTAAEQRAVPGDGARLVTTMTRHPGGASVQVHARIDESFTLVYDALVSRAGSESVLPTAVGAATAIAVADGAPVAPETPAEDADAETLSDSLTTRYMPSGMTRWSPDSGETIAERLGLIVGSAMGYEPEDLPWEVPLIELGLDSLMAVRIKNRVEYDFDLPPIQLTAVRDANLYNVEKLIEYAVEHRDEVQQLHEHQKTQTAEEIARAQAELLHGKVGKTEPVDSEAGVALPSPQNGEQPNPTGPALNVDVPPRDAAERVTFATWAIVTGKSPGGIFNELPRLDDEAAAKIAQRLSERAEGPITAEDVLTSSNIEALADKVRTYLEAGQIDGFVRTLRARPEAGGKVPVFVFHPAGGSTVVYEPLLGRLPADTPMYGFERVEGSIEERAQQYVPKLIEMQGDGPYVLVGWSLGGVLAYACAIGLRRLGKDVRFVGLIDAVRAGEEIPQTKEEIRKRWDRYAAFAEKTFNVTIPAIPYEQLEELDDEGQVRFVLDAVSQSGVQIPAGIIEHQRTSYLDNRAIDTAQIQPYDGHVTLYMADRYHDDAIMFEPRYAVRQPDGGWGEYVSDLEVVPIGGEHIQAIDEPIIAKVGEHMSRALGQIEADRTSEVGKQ
UniProt Q4DA54, 1-478: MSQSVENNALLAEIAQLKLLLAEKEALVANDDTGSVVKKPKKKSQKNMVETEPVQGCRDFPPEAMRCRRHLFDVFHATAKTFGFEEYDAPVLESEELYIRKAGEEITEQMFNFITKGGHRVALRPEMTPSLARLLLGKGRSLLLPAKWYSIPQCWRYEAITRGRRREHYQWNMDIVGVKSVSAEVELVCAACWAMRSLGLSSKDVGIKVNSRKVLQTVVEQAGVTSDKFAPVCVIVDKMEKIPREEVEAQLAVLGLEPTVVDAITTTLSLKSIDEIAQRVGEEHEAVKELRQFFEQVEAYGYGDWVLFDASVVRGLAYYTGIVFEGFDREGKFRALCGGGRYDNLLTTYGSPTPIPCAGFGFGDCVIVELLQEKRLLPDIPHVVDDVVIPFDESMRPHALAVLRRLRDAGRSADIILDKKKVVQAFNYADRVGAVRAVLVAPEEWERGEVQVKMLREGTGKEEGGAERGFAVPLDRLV
UniProt A4I591, 1-473: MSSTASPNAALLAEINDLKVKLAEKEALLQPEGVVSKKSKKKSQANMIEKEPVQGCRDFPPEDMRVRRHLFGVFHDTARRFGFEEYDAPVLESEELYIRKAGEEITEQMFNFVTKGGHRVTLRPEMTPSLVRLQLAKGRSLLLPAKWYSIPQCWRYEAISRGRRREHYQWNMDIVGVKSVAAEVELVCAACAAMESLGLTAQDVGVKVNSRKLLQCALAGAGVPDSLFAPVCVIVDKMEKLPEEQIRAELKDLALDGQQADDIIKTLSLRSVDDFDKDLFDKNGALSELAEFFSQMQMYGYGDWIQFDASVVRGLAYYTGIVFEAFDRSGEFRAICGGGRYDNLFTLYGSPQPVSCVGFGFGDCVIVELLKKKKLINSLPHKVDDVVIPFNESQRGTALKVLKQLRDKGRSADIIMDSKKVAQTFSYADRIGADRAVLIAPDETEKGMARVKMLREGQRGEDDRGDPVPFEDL

From ChEMBL document CHEMBL3988442, “University of Dundee, Small-Polar-MMV Screening Library” (2021).

The filed quantity is “Percent Effect” (%).
The record does not define 0% and 100%; most values in the screen are far below 50% and negative numbers occur (in some assays of this library far below -100).
Compounds were drawn at random from those tested, without regard to their results.

Pks13 thioesterase: 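Polyketide synthase Pks13, Mycobacterium tuberculosis (UniProt I6X8D2). Enzyme assay of the thioesterase domain of polyketide synthase 13; the read-out is not stated. Compounds at 30 µM. Higher reads as stronger inhibition (inferred from which compounds were picked for retests). Size under these conditions: about 67,000 compounds, about 300 of them at 50% or above in at least one test.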
TcHisRS: 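Histidine-tRNA ligase, Trypanosoma cruzi CL Brener (UniProt Q4DA54). Enzyme assay of histidyl-tRNA synthetase; the read-out is not stated. Concentration: 30 µM. The record gives no direction; compounds that gave an IC50 in retests scored well above the rest, so higher reads as stronger inhibition. About 69,000 compounds were tested under these conditions; 0.045% (about 31) showed 50% or more at least once.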
LiHisRS: 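Histidine-tRNA ligase, Leishmania infantum (UniProt A4I591). Enzyme assay of histidyl-tRNA synthetase; the read-out is not stated. Tested at 30 µM. The record gives no direction; compounds that gave an IC50 in retests scored well above the rest, so higher reads as stronger inhibition. The assay is labelled LdHisRS but filed under L. infantum. Size under these conditions: about 69,000 compounds, about 410 of them at 50% or above in at least one test.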

CC1(C)Cc2c(cnn2-c2cccc(F)c2)C(NC2CCSCC2)C1 (stereo not given) read Pks13 thioesterase: -20.4%; TcHisRS: 0%; LiHisRS: 5.263%. Result for CCc1csc(C2CCCN(C(=O)c3ccc4[nH]nnc4c3)C2)n1 (stereo not given) was Pks13 thioesterase: -50.57%; TcHisRS: 4.373%; LiHisRS: 9.735%. For COCC(=O)N1CC(c2n[nH]cc2C)C1 the result was Pks13 thioesterase: -4.2%; TcHisRS: 0.7752%; LiHisRS: 11.35%. c1ccc(-c2noc(CCCN3CCCC3Cn3cccn3)n2)cc1 (stereo not given) read Pks13 thioesterase: 0.3822%; TcHisRS: 2.035%; LiHisRS: 14.91%. CC(C)Cc1cc(NC(=O)N2CCC(Oc3cccnc3)C2)n(C)n1 (stereo not given) gave Pks13 thioesterase: 9.788%; TcHisRS: 8.621%; LiHisRS: 7.895%.

Result for O=C(Nc1cccc(OC(F)F)c1)C1CN(S(=O)(=O)C2CC2)C1 was Pks13 thioesterase: -14.43%; TcHisRS: 2.062%; LiHisRS: 15.65%. CC(NCCCn1cccn1)c1ccc(N2CCCS2(=O)=O)cc1 (stereo not given) read Pks13 thioesterase: -35.93%; TcHisRS: 3.185%; LiHisRS: 4.225%. For Cc1cccc(Sc2nccn(C)c2=O)c1 the result was Pks13 thioesterase: -0.634%; TcHisRS: 3.333%; LiHisRS: 13.51%. Cc1cnc(CCN(C)C(=O)c2cccc(N(C)C)c2)s1 read Pks13 thioesterase: -32.52%; TcHisRS: 7.328%; LiHisRS: -8.861%. For Cc1n[nH]c(C2CN(CC(=O)NCCc3ccsc3)CCO2)n1 (stereo not given) the result was Pks13 thioesterase: -18.87%; TcHisRS: 2.479%; LiHisRS: 13.46%.

CC(=O)Nn1c(C)cc(CN2CCCN(Cc3ccncc3)CC2)c1C gave Pks13 thioesterase: -11.5%; TcHisRS: 7.514%; LiHisRS: 28%. CCn1nc(C)c(CNC(=O)c2cn(CC3CCCO3)nn2)c1C (stereo not given) gave Pks13 thioesterase: -11.54%; TcHisRS: 2.905%; LiHisRS: 14.56%. For Cc1ccc(CC(=O)N2CCN(C(C)c3ccccc3F)CC2)cn1 (stereo not given) the result was Pks13 thioesterase: -15.05%; TcHisRS: -4.046%; LiHisRS: 14.67%. CCCS(=O)(=O)N1C[C@H]2C[C@H](C(=O)Nc3cccnc3)[C@@H](C1)O2 read Pks13 thioesterase: 7.111%; TcHisRS: 3.922%; LiHisRS: 8%. Cc1cnc(N2CCn3cc(CNC(=O)CC4CC4)nc3C2)nc1 gave Pks13 thioesterase: -40.92%; TcHisRS: 4.918%; LiHisRS: -0.7299%.

Cn1cnc2c1C(COCc1cccnc1)N(Cc1ccccn1)CC2 (stereo not given) read Pks13 thioesterase: -7.364%; TcHisRS: 1.622%; LiHisRS: 20.75%. Result for O=C(CCn1ccc2cc(Br)ccc21)NC[C@@H]1CCCN2CCCC[C@H]12 was Pks13 thioesterase: -7.377%; TcHisRS: -0.9901%; LiHisRS: -3.261%. With Cc1nnc(CN2CCCC(CCc3ccccc3C(F)(F)F)C2)o1 (stereo not given) the screen gave Pks13 thioesterase: 8.043%; TcHisRS: 1.681%; LiHisRS: 14.88%. CC(C)Nc1nc(O)cc(C2CC(=O)N(Cc3ccccc3)C2)n1 (stereo not given) read Pks13 thioesterase: -9.476%; TcHisRS: 5.323%; LiHisRS: 6.207%. Result for O=C1CC(c2cccs2)Cc2[nH]c(=O)ccc21 (stereo not given) was Pks13 thioesterase: 12.19%; TcHisRS: 2.273%; LiHisRS: 20%.

O=C(O)c1cc(S(=O)(=O)N2CCOc3ccccc32)ccc1F read Pks13 thioesterase: -14.03%; TcHisRS: -1.527%; LiHisRS: 17.02%. CCN(Cc1csc(CS(C)(=O)=O)n1)c1cccc(F)c1 gave Pks13 thioesterase: -12.98%; TcHisRS: 6.358%; LiHisRS: -54.67%. Result for COc1ccc(-n2ccc(C(=O)NCCN3CCCCC3)n2)cc1 was Pks13 thioesterase: -5.964%; TcHisRS: 5.747%; LiHisRS: 6.957%. Cn1cc(N2CC3(CCN(CC4CCOCC4)CC3)OCC2=O)cn1 gave Pks13 thioesterase: -29.42%; TcHisRS: -3.825%; LiHisRS: 13.59%. Result for CC(C)c1nc(CN(C)C(=O)c2ccccc2C2CCNC2)cs1 (stereo not given) was Pks13 thioesterase: -22.36%; TcHisRS: 1.117%; LiHisRS: 8.333%.

Result for CC(C)(C)c1ccc2c(c1)CCN2C(=O)c1nc(=O)[nH][nH]1 was Pks13 thioesterase: -7.892%; TcHisRS: 6.316%; LiHisRS: 16.44%. COCCn1cnc2ccc(NC(=O)C(C)C)cc2c1=O read Pks13 thioesterase: 22.89%; TcHisRS: -6.931%; LiHisRS: 4.348%. Result for CN(C)CCO[C@H]1CN(C(=O)c2cscn2)[C@@H]2COC[C@H]12 was Pks13 thioesterase: 4.363%; TcHisRS: 7.438%; LiHisRS: 16.36%. With N#Cc1ncn(CCC(=O)Nc2cccc(Cl)c2)n1 the screen gave Pks13 thioesterase: -6.983%; TcHisRS: 12.06%; LiHisRS: 15.96%. For NC(CC1CCCCC1)c1ccccc1 (stereo not given) the result was Pks13 thioesterase: -2.563%; TcHisRS: 10.98%; LiHisRS: 14.89%.

Cc1nc2c(c(NCc3ccc(-c4ccccn4)s3)n1)CCNCC2 read Pks13 thioesterase: -34.93%; TcHisRS: 7.303%; LiHisRS: 10.26%. Result for COc1ccc(C2SCC(=O)Nc3n[nH]cc32)c(OC)c1OC (stereo not given) was Pks13 thioesterase: -7.598%; TcHisRS: 2.484%; LiHisRS: -5%. With CC(OCC(F)(F)F)C(=O)N1CCCCC1 (stereo not given) the screen gave Pks13 thioesterase: -6.546%; TcHisRS: -2.479%; LiHisRS: 7.692%. For CC(=O)N(C)CC(=O)NC(C)c1ccc(OCCC(C)C)cc1 (stereo not given) the result was Pks13 thioesterase: -24.72%; TcHisRS: 3.509%; LiHisRS: 14.29%. Result for Cc1csc(NC(=O)CN(C)CCOc2cccc(F)c2)n1 was Pks13 thioesterase: 11.98%; TcHisRS: -1.031%; LiHisRS: -3.448%.

Result for Cc1csc(N2CCCN(C(=O)Cc3cccs3)CC2)n1 was Pks13 thioesterase: -8.334%; TcHisRS: 3.779%; LiHisRS: 20.18%. CCOC(=O)NCCC(O)c1ccoc1 (stereo not given) read Pks13 thioesterase: -39.39%; TcHisRS: 2.424%; LiHisRS: 10.39%. Cc1nc(CN2CCCN(C(=O)c3sccc3C#N)CC2)cs1 read Pks13 thioesterase: -27.25%; TcHisRS: 5.539%; LiHisRS: 13.27%. Cc1nc[nH]c1CN1CCN(C(=O)C2CC2)[C@H]2CS(=O)(=O)C[C@H]21 gave Pks13 thioesterase: -13.31%; TcHisRS: -1.212%; LiHisRS: 18.18%.

For reference, 4 entries once more:

SMILES	Pks13 thioesterase	TcHisRS	LiHisRS
Cc1cccc(Sc2nccn(C)c2=O)c1	-0.634	3.333	13.51
O=C(O)c1cc(S(=O)(=O)N2CCOc3ccccc32)ccc1F	-14.03	-1.527	17.02
CCc1csc(C2CCCN(C(=O)c3ccc4[nH]nnc4c3)C2)n1 (stereo not given)	-50.57	4.373	9.735
Cn1cnc2c1C(COCc1cccnc1)N(Cc1ccccn1)CC2 (stereo not given)	-7.364	1.622	20.75